Patent publication US20040259848A1
These are yes or no findings as the source states them, for the method shown. Some entries that bind do so weakly or less than the wild type. Sequences can lack the tags named with a protein.

Molecular target: Saccharomyces cerevisiae ketol-acid reductoisomerase, "short" form (construct no. 1), mature protein without the transit peptide, overproduced in E. coli (Saccharomyces cerevisiae) (UniProt P06168)
Test: gel filtration on Superdex 75; single peak estimated at 67 kDa (monomer about 40 kDa, dimer 80 kDa)

B1: Saccharomyces cerevisiae ketol-acid reductoisomerase, "short" form (construct no. 1), mature protein without the transit peptide, overproduced in E. coli (enzyme)
chain: LKQINFGGTVETVYERADWPREKLLDYFKNDTFALIGYGSQGYGQGLNLRDNGLNVIIGVRKDGASWKAAIEDGWVPGKNLFTVEDAIKRGSYVMNLLSDAAQSETWPAIKPLLTKGKTLYFSHGFSPVFKDLTHVEPPKDLDVILVAPKGSGRTVRSLFKEGRGINSSYAVWNDVTGKAHEKAQALAVAIGSGYVYQTTFEREVNSDLYGERGCLMGGIHGMFLAQYDVLRENGHSPSEAFNETVEEATQSLYPLIGKYGMDYMYDACSTTARRGALDWYPIFKNALKPVFQDLYESTKNGTETKRSLEFNSQPDYREKLEKELDTIRNMEIWKVGKEVRKLRPENQ
With B1 as the binder, how does the binding read?
The binding was “binds”.
